Data taken from article PMC2834593, “NMR characterisation of the minimal interacting regions of centrosomal proteins 4.1R and NuMA1: effect of phosphorylation” (BMC Biochemistry, 2010).
No constants are given. Whether binding was seen depends on the method and setting.

T1: 4.1R-CTD64 (last 64 amino acids of the C-terminal domain of human protein 4.1R) (human)
T1 sequence (chain, 15N labelled): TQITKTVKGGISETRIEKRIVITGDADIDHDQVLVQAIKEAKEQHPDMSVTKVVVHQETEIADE


Assays:
[1] = target: T1, 4.1R-CTD64 (last 64 amino acids of the C-terminal domain of human protein 4.1R) (human); test: NMR titration; 15N labelled 4.1R-CTD64 (0.1 mM, 100 mM Na2HPO4, 90% H2O/10% D2O) titrated with NuMA1 peptide up to 20:1, followed by 1H-15N HSQC, pH 4.9, 25°C; chemical shift perturbation analysis; both purified
[2] = target: T1, 4.1R-CTD64 (last 64 amino acids of the C-terminal domain of human protein 4.1R) (human); test: NMR titration; 15N labelled 4.1R-CTD64 (0.1 mM, 100 mM Na2HPO4, 90% H2O/10% D2O) titrated with NuMA1 peptide up to 20:1, followed by 1H-15N HSQC, pH 4.0, 25°C; both purified

Binder	binding [1]	binding [2]
LDSLGDVFLDSGRKTRSARRR (acetyl on the N-terminus; C-terminal amide) [NuMA1 overlapping peptide (N1O), residues 1776-1796 of NuMA1]	no binding (tested: up to 20:1 N1O to 4.1R-CTD64)	–
DSGRKTRSARRRTTQIINITMTKKLD (acetyl on the N-terminus; C-terminal amide) [NuMA1 interacting peptide (N1I), residues 1785-1810 of NuMA1]	–	no binding (condition: at pH 4 (N1I:4.1R-CTD64, 20:1))
